PubChem BioAssay AID1053208 | Peter MacCallum Cancer Centre – 2014
Test: 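Find knock-downs that sensitise mouse osteosarcoma cells to doxorubicin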 (primary screen). Cell system: mouse osteosarcoma cells, early-passage culture from an engineered mouse model of fibroblastic bone tumour. Reagent: siRNA pool against mouse genes, 40 nM. Time to read-out: about 120 h (48 h before drug, then 72 h with drug). Conditions: doxorubicin 100 nM for 72 h, roughly 30-40% inhibitory dose. Measurement: 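Viability read as ATP luminescence after 72 h of 100 nM doxorubicin or none, duplicate wells averaged, scaled to non-targeting siRNA, then expressed as robust z-scores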. Scale: viability z-score with doxorubicin: higher = more viable cells under doxorubicin; viability z-score without drug: higher = more viable cells with knock-down alone. Call rule: 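a pool counts as active when its viability z-score with doxorubicin is -2 or below and its z-score without drug lies between -2 and 2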.
The deposit covers about 17,000 reagents; below is an unselected part. 788 of all reagents (4.7%) were called active. 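Calls rest on z-score classes alone; an extra cut-off of viability at most 70% of control was not applied to them.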 Entries without a mark were called inactive. Not all columns of the deposit are shown. No sequences are given here.

For Or4k36, the entry reads combined z-score class low cell count with doxorubicin only (active); viability z-score with doxorubicin -2.7; viability z-score without drug -1.85.
Against Slco5a1 the deposit lists combined z-score class no change with or without drug; viability z-score with doxorubicin 0.9; viability z-score without drug -0.67.
Mobp showed combined z-score class low cell count with and without drug; viability z-score with doxorubicin -2.02; viability z-score without drug -2.19.
Against Gli3, the entry reads combined z-score class no change with or without drug; viability z-score with doxorubicin 0; viability z-score without drug -0.17.
Against Pi15, the values are combined z-score class no change with or without drug; viability z-score with doxorubicin -0.9; viability z-score without drug -0.17.
For Islr, the values are combined z-score class no change with or without drug; viability z-score with doxorubicin -1.57; viability z-score without drug -0.51.
Fhl2 gave combined z-score class no change with or without drug; viability z-score with doxorubicin 0; viability z-score without drug 0.34.
For Smpd4 the deposit lists combined z-score class no change with or without drug; viability z-score with doxorubicin -1.12; viability z-score without drug -0.51.
Knock-down of A630031M04Rik resulted in: combined z-score class no change with or without drug; viability z-score with doxorubicin -0.22; viability z-score without drug -1.52.
Slc30a9 showed combined z-score class no change with or without drug; viability z-score with doxorubicin -0.67; viability z-score without drug 1.18.
Silencing of DDX46 came out at: combined z-score class no change with or without drug; viability z-score with doxorubicin 0.67; viability z-score without drug -0.17.
Knock-down of Med23 gave: combined z-score class no change with or without drug; viability z-score with doxorubicin -1.12; viability z-score without drug -0.17.
Knock-down of Castor2 came out at: combined z-score class no change with or without drug; viability z-score with doxorubicin 0.67; viability z-score without drug 1.18.
With knock-down of Trhde the results were combined z-score class no change with or without drug; viability z-score with doxorubicin 0.9; viability z-score without drug 0.34.
For S100b, the entry reads combined z-score class no change with or without drug; viability z-score with doxorubicin -0.22; viability z-score without drug 0.17.
After knock-down of Or4c31, the screen gave combined z-score class no change with or without drug; viability z-score with doxorubicin 0.34; viability z-score without drug -1.18.
Knock-down of Neurod1 resulted in: combined z-score class high cell count with doxorubicin only; viability z-score with doxorubicin 2.59; viability z-score without drug 0.84.
Depletion of Insrr came out at: combined z-score class no change with or without drug; viability z-score with doxorubicin 0; viability z-score without drug 0.17.
Against Or9s14 the deposit lists combined z-score class no change with or without drug; viability z-score with doxorubicin -1.8; viability z-score without drug -0.51.
Rab2a scored combined z-score class no change with or without drug; viability z-score with doxorubicin 0.11; viability z-score without drug 0.
For Naxe, the entry reads combined z-score class no change with or without drug; viability z-score with doxorubicin -1.91; viability z-score without drug 0.17.
With knock-down of Zfp113, the screen gave combined z-score class low cell count without drug only; viability z-score with doxorubicin -0.22; viability z-score without drug -3.04.
Against Knstrn the deposit lists combined z-score class no change with or without drug; viability z-score with doxorubicin -0.67; viability z-score without drug 0.67.
For Nkiras2 the deposit lists combined z-score class no change with or without drug; viability z-score with doxorubicin 0.67; viability z-score without drug 0.51.

Copied from the listing (3 entries):
Slco5a1 | combined z-score class = no change with or without drug; viability z-score with doxorubicin = 0.9; viability z-score without drug = -0.67
Mobp | combined z-score class = low cell count with and without drug; viability z-score with doxorubicin = -2.02; viability z-score without drug = -2.19
Gli3 | combined z-score class = no change with or without drug; viability z-score with doxorubicin = 0; viability z-score without drug = -0.17

Continued:
For Proser1, the entry reads combined z-score class high cell count without drug only; viability z-score with doxorubicin 0.9; viability z-score without drug 2.02.
Ap5m1 showed combined z-score class no change with or without drug; viability z-score with doxorubicin -1.01; viability z-score without drug -1.85.
Knock-down of Nr5a1 resulted in: combined z-score class no change with or without drug; viability z-score with doxorubicin 1.57; viability z-score without drug 0.51.
After knock-down of Or5p54 the results were combined z-score class no change with or without drug; viability z-score with doxorubicin -0.11; viability z-score without drug 0.17.
Silencing of Smad4 came out at: combined z-score class no change with or without drug; viability z-score with doxorubicin 0.22; viability z-score without drug 0.84.
With knock-down of Cpa1, the record shows combined z-score class no change with or without drug; viability z-score with doxorubicin -1.57; viability z-score without drug 0.17.
Against Speer4a1, the entry reads combined z-score class low cell count with and without drug; viability z-score with doxorubicin -2.47; viability z-score without drug -2.7.
Yju2b scored combined z-score class high cell count without drug only; viability z-score with doxorubicin -0.11; viability z-score without drug 2.87.
Hddc3 scored combined z-score class low cell count without drug only; viability z-score with doxorubicin -0.9; viability z-score without drug -2.19.
With knock-down of Spata18 the results were combined z-score class high cell count without drug only; viability z-score with doxorubicin 1.8; viability z-score without drug 2.36.
Cnst showed combined z-score class low cell count without drug only; viability z-score with doxorubicin -0.22; viability z-score without drug -2.53.
After knock-down of Cand2, the screen gave combined z-score class high cell count without drug only; viability z-score with doxorubicin -1.46; viability z-score without drug 2.36.
